This is one part of the list.
Tests used:
Test in all cases: log2 fold change, soluble protein after heating vs DMSO (PISA); higher = thermal stabilisation; K562 cells, 10 uM, 30 min; active = over 0.2 and 3.5 SD of the protein, either way, in both replicates (recomputed)
[1] = compound: CC1=C(C=C(C=C1)NC(=O)C2=CC(=CC=C2)C(C)(C)C#N)NC3=CC4=C(C=C3)N=CN(C4=O)C
In short: (§1)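 K562 cells at 2×10^6 cells/mL were treated with 10 μM compound for 30 min. Aliquots were heated for 3 min across 48°C-58°C, pooled, and extracted in PBS with 0.5% NP-40 at 4°C; soluble protein was the supernatant after 21,000xg for 90 min. Soluble protein was quantified by TMTpro 16plex LC-MS/MS with channel sums equalised, and reported as log2 fold change in thermal stability against DMSO controls, with values from duplicates.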

Sequences of proteins named here, by UniProt entry; tags and fusion partners are left off. A change or cut given only in a name is not applied to a line headed by its entry.
UniProt P28070, whole entry, looked up: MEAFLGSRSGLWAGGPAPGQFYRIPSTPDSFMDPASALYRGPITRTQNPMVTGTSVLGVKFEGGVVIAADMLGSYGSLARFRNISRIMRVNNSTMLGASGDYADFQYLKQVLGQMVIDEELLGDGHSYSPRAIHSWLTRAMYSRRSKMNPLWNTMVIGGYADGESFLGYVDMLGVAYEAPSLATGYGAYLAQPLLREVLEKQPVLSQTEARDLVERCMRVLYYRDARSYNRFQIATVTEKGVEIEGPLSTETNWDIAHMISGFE
UniProt Q93096: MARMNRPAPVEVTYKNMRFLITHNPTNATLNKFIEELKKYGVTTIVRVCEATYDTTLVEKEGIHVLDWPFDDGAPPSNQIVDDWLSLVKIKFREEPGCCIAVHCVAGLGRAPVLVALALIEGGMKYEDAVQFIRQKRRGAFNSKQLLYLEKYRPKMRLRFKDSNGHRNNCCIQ
UniProt Q8WXF1: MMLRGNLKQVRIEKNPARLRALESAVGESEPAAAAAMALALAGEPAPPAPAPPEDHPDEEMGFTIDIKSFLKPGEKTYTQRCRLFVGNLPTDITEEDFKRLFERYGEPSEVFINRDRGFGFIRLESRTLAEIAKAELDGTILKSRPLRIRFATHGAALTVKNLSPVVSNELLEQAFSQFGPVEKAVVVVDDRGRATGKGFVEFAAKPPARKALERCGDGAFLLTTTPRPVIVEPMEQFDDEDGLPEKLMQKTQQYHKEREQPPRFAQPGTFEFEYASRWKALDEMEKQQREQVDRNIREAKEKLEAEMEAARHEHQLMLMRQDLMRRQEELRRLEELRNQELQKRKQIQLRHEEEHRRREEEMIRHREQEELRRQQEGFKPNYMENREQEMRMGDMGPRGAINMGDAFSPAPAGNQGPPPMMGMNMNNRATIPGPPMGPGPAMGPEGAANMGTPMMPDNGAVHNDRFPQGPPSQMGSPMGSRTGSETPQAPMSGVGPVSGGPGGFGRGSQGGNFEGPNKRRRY
UniProt P62195, whole entry, looked up: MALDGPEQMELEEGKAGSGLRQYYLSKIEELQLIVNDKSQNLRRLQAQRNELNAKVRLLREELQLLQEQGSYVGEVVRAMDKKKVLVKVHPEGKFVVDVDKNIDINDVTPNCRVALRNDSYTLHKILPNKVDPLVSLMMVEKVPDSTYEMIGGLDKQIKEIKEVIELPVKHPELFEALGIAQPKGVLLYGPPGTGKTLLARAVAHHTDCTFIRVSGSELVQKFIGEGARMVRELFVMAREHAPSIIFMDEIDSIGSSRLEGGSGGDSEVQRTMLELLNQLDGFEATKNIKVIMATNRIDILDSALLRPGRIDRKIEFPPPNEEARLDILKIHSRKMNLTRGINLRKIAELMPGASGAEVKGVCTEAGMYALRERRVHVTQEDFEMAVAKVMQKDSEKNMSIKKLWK
UniProt P17980, whole entry, looked up: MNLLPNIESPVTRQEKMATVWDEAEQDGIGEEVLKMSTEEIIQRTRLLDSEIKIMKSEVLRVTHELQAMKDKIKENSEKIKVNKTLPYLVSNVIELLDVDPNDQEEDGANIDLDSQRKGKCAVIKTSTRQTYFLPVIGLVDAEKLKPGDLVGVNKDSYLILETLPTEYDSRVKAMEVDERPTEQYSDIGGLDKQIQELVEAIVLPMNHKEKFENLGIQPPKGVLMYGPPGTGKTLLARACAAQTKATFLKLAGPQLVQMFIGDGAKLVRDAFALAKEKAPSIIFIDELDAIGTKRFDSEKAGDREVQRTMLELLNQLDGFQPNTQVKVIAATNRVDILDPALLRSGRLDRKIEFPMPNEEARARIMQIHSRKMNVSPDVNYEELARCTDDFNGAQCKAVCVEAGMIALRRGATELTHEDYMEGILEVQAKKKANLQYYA
UniProt O95997: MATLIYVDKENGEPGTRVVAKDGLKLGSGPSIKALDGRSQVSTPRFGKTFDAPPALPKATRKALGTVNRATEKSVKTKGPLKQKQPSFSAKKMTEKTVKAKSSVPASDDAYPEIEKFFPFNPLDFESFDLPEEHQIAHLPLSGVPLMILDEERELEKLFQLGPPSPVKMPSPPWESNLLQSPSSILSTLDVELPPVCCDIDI
UniProt P43686, whole entry, looked up: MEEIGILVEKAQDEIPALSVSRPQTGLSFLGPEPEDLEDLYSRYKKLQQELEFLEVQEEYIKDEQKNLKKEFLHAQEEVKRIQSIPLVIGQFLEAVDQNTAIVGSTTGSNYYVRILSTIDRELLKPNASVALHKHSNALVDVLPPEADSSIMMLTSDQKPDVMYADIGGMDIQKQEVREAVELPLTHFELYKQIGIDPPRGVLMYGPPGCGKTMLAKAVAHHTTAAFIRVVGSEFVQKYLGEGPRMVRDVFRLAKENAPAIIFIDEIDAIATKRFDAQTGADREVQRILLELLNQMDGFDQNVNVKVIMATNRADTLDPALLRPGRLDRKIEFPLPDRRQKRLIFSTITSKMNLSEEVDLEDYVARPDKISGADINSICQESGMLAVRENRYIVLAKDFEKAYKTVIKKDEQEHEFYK
UniProt Q8N8N7: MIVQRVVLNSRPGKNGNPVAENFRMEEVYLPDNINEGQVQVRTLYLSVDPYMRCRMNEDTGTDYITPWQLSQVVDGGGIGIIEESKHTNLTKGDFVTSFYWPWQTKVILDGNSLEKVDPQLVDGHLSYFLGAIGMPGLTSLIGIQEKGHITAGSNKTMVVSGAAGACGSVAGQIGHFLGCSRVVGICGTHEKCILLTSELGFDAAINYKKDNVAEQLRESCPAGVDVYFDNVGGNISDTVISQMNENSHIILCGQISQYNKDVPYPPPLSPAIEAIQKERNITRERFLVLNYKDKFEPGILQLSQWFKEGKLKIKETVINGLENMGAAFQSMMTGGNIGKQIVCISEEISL
UniProt Q14997: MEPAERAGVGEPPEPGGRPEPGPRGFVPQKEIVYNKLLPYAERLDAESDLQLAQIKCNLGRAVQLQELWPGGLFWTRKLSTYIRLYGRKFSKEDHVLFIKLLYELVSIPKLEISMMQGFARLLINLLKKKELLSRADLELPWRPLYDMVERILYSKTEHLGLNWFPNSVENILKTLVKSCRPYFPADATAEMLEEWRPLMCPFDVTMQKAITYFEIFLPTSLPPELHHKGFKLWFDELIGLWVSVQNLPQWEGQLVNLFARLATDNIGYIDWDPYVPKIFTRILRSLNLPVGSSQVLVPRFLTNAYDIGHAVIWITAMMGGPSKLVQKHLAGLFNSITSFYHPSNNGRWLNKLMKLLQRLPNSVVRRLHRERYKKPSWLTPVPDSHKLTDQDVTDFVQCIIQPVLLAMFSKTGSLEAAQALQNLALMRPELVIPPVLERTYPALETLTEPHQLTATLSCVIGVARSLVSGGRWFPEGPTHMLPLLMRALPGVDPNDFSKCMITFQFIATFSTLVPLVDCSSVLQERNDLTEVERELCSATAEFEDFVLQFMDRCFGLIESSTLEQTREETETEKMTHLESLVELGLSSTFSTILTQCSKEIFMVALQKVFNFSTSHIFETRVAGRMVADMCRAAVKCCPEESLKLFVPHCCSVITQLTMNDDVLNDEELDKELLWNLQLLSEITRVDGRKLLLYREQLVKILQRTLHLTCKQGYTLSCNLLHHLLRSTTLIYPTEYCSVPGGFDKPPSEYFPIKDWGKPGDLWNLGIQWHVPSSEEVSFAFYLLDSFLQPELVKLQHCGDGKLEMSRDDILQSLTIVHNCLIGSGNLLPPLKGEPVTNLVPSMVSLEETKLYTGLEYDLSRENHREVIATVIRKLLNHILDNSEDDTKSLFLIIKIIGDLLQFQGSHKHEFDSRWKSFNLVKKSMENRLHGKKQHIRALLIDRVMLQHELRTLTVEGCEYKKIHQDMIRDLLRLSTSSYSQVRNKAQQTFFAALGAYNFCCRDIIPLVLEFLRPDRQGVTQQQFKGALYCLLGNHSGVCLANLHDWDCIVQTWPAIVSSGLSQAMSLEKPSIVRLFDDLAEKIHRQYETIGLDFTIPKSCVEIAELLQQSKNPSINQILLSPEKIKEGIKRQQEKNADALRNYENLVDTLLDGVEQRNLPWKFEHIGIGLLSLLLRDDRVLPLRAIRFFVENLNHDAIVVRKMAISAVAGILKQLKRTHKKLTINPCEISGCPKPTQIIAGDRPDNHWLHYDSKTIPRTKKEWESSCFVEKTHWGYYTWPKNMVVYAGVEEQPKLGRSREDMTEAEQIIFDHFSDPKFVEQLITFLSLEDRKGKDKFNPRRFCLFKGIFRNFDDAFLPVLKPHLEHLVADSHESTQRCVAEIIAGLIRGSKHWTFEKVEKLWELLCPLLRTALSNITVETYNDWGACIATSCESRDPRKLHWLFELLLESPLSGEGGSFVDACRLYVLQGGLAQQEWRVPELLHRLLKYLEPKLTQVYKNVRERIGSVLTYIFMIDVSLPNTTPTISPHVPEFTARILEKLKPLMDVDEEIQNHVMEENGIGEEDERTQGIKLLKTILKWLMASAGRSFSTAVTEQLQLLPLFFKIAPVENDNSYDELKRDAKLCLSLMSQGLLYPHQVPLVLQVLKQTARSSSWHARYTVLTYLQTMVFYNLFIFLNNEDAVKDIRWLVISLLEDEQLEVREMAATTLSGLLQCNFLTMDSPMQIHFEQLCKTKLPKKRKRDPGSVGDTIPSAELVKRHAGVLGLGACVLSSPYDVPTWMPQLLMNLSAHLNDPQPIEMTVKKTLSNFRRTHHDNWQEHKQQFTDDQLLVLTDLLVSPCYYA
UniProt Q9BRQ0: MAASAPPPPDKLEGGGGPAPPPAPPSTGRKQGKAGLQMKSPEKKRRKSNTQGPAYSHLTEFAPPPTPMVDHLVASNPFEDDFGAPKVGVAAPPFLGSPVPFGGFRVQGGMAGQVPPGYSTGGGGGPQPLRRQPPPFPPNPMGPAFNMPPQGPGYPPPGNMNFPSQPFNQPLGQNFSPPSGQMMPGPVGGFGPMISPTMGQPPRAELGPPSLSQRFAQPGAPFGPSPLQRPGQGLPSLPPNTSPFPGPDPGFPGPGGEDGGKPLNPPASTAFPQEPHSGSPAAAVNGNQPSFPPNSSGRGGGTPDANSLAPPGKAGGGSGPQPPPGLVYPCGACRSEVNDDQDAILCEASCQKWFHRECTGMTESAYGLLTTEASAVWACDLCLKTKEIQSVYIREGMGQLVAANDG
UniProt P35998: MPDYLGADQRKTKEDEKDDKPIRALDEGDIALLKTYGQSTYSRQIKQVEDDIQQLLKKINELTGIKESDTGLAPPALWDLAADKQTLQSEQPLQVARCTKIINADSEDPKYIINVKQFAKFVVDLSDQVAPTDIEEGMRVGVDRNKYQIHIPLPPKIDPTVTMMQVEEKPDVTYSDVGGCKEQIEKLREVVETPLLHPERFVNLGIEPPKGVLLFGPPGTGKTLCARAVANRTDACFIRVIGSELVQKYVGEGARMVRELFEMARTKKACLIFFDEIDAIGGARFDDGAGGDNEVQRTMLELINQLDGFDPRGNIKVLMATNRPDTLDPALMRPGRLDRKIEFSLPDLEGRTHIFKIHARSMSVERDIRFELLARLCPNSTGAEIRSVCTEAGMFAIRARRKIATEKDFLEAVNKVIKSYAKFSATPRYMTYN
UniProt P62333, whole entry, looked up: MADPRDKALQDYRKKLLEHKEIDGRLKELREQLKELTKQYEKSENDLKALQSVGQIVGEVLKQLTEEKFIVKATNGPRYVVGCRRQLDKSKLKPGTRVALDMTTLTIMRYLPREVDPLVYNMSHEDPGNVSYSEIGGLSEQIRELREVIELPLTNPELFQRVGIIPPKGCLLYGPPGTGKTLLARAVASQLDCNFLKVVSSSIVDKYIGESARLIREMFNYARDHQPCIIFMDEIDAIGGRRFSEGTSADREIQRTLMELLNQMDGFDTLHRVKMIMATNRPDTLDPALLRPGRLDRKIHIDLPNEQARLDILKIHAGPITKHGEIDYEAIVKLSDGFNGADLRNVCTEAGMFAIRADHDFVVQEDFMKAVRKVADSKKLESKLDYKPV
UniProt Q9Y3E5: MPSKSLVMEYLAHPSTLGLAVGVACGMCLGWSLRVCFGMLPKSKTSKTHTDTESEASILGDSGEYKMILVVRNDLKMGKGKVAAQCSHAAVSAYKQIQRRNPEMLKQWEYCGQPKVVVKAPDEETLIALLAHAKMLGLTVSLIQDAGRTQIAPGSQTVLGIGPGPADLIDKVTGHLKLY
UniProt Q15185: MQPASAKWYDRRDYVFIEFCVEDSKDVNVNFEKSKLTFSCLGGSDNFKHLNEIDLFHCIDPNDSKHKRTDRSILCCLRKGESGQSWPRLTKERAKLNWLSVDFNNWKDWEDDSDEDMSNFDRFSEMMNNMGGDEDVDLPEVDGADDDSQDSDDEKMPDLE

[2] = compound: CC1=C(C=C(C=C1)NC(=O)C2=CC(=CC=C2)N(C)C)NC(=O)C3=CC=C(C=C3)O
In short: as §1

[3] = compound: CC1=CC=C(C=C1)SC2=C3C=C(SC3=CN=C2)C(=O)N
In short: as §1

[4] = compound: CC1=NC(=CC=C1)C2=C(N=C(N2)C(C)(C)C)C3=CC4=NC=CN=C4C=C3
In short: as §1

[5] = compound: CCCCN(Cc1ccc(C(=O)NO)cc1)C(=O)Nc1ccccc1 [Nexturastat A]
In short: as §1

[6] = compound: CCCS(=O)(=O)Nc1ccc(F)c(C(=O)c2c[nH]c3ncc(-c4ccc(Cl)cc4)cc23)c1F [vemurafenib]
In short: as §1

[7] = compound: CCCS(=O)(=O)Nc1ccc(F)c(C(=O)c2c[nH]c3ncc(Cl)cc23)c1F
In short: as §1

[8] = compound: CCCc1cc(C)[nH]c(=O)c1CNC(=O)c1cc(-c2ccnc(N3CCN(C)CC3)c2)cc2c1cnn2C(C)C
In short: as §1

[9] = compound: CCN(CC)Cc1ccc2cc(COC(=O)Nc3ccc(C(=O)NO)cc3)ccc2c1 [givinostat]
In short: as §1

[10] = compound: CCN(CCCOc1ccc2c(Nc3cc(CC(=O)Nc4cccc(F)c4)[nH]n3)ncnc2c1)CCOP(=O)(O)O [barasertib]
In short: as §1

[11] = compound: CC[C@@H]1C(=O)N(C)c2cnc(Nc3ccc(C(=O)NC4CCN(C)CC4)cc3OC)nc2N1C1CCCC1
In short: as §1

[12] = compound: CC[C@@H]1C(=O)N(C)c2cnc(Nc3ccc(C(=O)N[C@H]4CC[C@H](N5CCN(CC6CC6)CC5)CC4)cc3OC)nc2N1C(C)C [volasertib]
In short: as §1

[13] = compound: CC[C@H](C)N1C=C(C2=C(C=C(C=C21)C3=CN=C(C=C3)N4CCNCC4)C(=O)NCC5=C(C=C(NC5=O)C)C)C
In short: as §1

[14] = compound: CC[C@H](C)[C@@H](C(=O)N[C@@H]([C@@H](C)O)C(=O)N[C@@H](CC(C)C)C(=O)[C@]1(CO1)C)NC(=O)[C@H]([C@@H](C)CC)N(C)C(=O)C [epoxomicin]
In short: as §1

[15] = compound: CCn1cc(-c2ccnc3[nH]c(-c4cccc(CN(C)C)c4)cc23)c(-c2ccc(NC(=O)N(C)C)cc2)n1
In short: as §1

[16] = compound: CN(C)CC(=O)Nc1ccc2[nH]c(=O)c3ccccc3c2c1
In short: as §1

[17] = compound: CN1C2=C(C3=C1C(=O)N(N=C3)CC4=CC(=CC=C4)N)SC(=C2)S(=O)C
In short: as §1

[18] = compound: CN1CCC(CNc2ccc3ncc(-c4cccc(OC(F)(F)F)c4)n3n2)CC1
In short: as §1

[19] = compound: CCn1c(C(=O)N(C2CC2)C2CC2)cc2c3c(ncn3C)c(Nc3cc(C)n(C)n3)nc21
In short: as §1

[20] = compound: CN(CCOC1=CC=C(C=C1)C[C@H]2C(=O)NC(=O)S2)C3=CC=CC=N3 (racemic) [rosiglitazone]
In short: as §1

Target | log2 fold change [1] | log2 fold change [2] | log2 fold change [3] | log2 fold change [4] | log2 fold change [5] | log2 fold change [6] | log2 fold change [7] | log2 fold change [8] | log2 fold change [9] | log2 fold change [10] | log2 fold change [11] | log2 fold change [12] | log2 fold change [13] | log2 fold change [14] | log2 fold change [15] | log2 fold change [16] | log2 fold change [17] | log2 fold change [18] | log2 fold change [19] | log2 fold change [20]
PSMB4 (UniProt P28070) | inactive: -0.026 | inactive: 0.02 | inactive: -0.075 | inactive: -0.031 | inactive: 0.023 | inactive: -0.027 | inactive: -0.029 | inactive: 0.008 | inactive: -0.008 | inactive: -0.052 | inactive: 0.073 | inactive: 0.114 | inactive: -0.043 | inactive: -0.202 | inactive: 0.031 | inactive: -0.028 | inactive: 0.021 | inactive: 0.057 |  | 
PUF60 (UniProt Q9UHX1) | inactive: 0.046 | inactive: -0.018 | inactive: 0.043 | inactive: 0.022 | inactive: -0.003 | inactive: 0.034 | inactive: 0.14 | inactive: 0.009 | inactive: 0.022 | inactive: 0.025 | inactive: -0.078 | active: -0.304 | inactive: 0.033 | inactive: 0.028 | inactive: -0.032 | inactive: 0.007 | inactive: -0.031 | inactive: 0.051 |  | 
PTP4A1 (UniProt Q93096) | inactive: -0.007 | inactive: -0.005 | inactive: 0.023 | inactive: 0.023 | inactive: 0.002 | inactive: 0 | inactive: 0.062 | inactive: -0.024 | inactive: -0.003 | inactive: 0.035 | inactive: 0.025 | inactive: 0.019 | inactive: 0.036 | inactive: 0.065 | inactive: -0.055 | inactive: -0.044 | inactive: -0.043 | inactive: 0.022 |  | 
PSPC1 (UniProt Q8WXF1) | inactive: 0.022 | inactive: 0.011 | inactive: 0.01 | inactive: 0.007 | inactive: 0.053 | inactive: -0.003 | inactive: 0.135 | inactive: 0.167 | inactive: 0.036 | inactive: 0.01 | inactive: -0.046 | inactive: -0.167 | inactive: 0.1 | inactive: 0.031 | inactive: -0.054 | inactive: 0.012 | inactive: 0.041 | inactive: 0.029 |  | 
PSMC5 (UniProt P62195) | inactive: 0.014 | inactive: 0.011 | inactive: -0.029 | inactive: -0.05 | inactive: 0.003 | inactive: -0.048 | inactive: -0.053 | inactive: 0.032 | inactive: -0.082 | inactive: -0.034 | inactive: 0.043 | inactive: 0.178 | inactive: -0.002 | active: -0.308 | inactive: 0.039 | inactive: -0.029 | inactive: 0.015 | inactive: 0.066 |  | 
PSMC3 (UniProt P17980) | inactive: 0.013 | inactive: 0.02 | inactive: -0.024 | inactive: -0.051 | inactive: 0.034 | inactive: -0.063 | inactive: -0.055 | inactive: 0.002 | inactive: -0.034 | inactive: -0.059 | inactive: 0.032 | inactive: 0.179 | inactive: -0.021 | active: -0.319 | inactive: 0.079 | inactive: -0.031 | inactive: 0.021 | inactive: 0.018 |  | 
PTTG1 (UniProt O95997) | inactive: 0.007 | inactive: -0.353 | inactive: 0.02 | inactive: -0.077 | inactive: 0.098 | inactive: -0.081 | inactive: -0.045 | inactive: -0.021 | inactive: 0.068 | inactive: 0.023 | inactive: 0.105 | inactive: 0.124 | inactive: 0.008 | active: 0.293 | inactive: 0.057 | inactive: -0.02 | inactive: 0.008 | inactive: -0.092 |  | 
PTPN12 (UniProt Q05209) | inactive: -0.026 | inactive: -0.071 | inactive: -0.037 | inactive: -0.034 | inactive: 0.162 | inactive: -0.002 | inactive: 0.04 | inactive: 0.07 | inactive: 0.072 | inactive: 0.127 | inactive: -0.119 | active: -0.465 | inactive: 0.063 | inactive: -0.012 | inactive: 0.027 | inactive: 0.015 | inactive: 0.079 | inactive: -0.043 |  | 
PSMC4 (UniProt P43686) | inactive: 0.016 | inactive: 0.013 | inactive: -0.049 | inactive: -0.036 | inactive: 0.03 | inactive: -0.066 | inactive: -0.083 | inactive: 0.084 | inactive: -0.059 | inactive: -0.042 | inactive: 0.033 | inactive: 0.2 | inactive: -0.021 | active: -0.379 | inactive: 0.086 | inactive: -0.033 | inactive: 0.033 | inactive: 0.06 |  | 
PTGR2 (UniProt Q8N8N7) | inactive: -0.022 | inactive: -0.058 | inactive: 0.022 | inactive: -0.056 | inactive: -0.175 | inactive: -0.022 | inactive: -0.021 | inactive: 0.234 | inactive: 0.139 | inactive: 0 | active: 1.1 | active: 1.27 | inactive: 0.154 | inactive: -0.006 | inactive: -0.117 | inactive: 0.181 | inactive: 0.025 | inactive: -0.278 |  | 
PSME4 (UniProt Q14997) | inactive: 0.017 | inactive: -0.02 | inactive: -0.024 | inactive: -0.017 | inactive: -0.034 | inactive: -0.014 | inactive: -0.005 | inactive: -0.043 | inactive: 0.022 | inactive: -0.007 | inactive: 0.076 | inactive: 0.038 | inactive: 0.04 | active: 0.35 | inactive: -0.069 | inactive: 0.02 | inactive: 0.001 | inactive: -0.137 |  | 
PSMD1 (UniProt Q99460) | inactive: 0.06 | inactive: 0.021 | inactive: -0.001 | inactive: -0.011 | inactive: 0.055 | inactive: -0.041 | inactive: -0.049 | inactive: 0.05 | inactive: -0.046 | inactive: -0.036 | inactive: 0.042 | inactive: 0.146 | inactive: -0.001 | inactive: -0.278 | inactive: 0.028 | inactive: -0.005 | inactive: 0.043 | inactive: 0.059 |  | 
PYGO2 (UniProt Q9BRQ0) | inactive: 0.104 | inactive: 0.032 | inactive: -0.115 | inactive: 0.011 | inactive: 0.02 | inactive: -0.12 | inactive: 0.072 | inactive: 0.003 | inactive: -0.039 | inactive: 0.05 | inactive: -0.035 | inactive: -0.196 | inactive: -0.018 | inactive: -0.062 | inactive: 0.074 | inactive: -0.174 |  | inactive: 0 | inactive: 0.057 | inactive: 0.032
PSMC2 (UniProt P35998) | inactive: 0.011 | inactive: 0.02 | inactive: -0.012 | inactive: -0.069 | inactive: 0.011 | inactive: -0.014 | inactive: -0.041 | inactive: 0.036 | inactive: -0.032 | inactive: -0.053 | inactive: 0.042 | inactive: 0.169 | inactive: -0.019 | active: -0.324 | inactive: 0.024 | inactive: -0.018 | inactive: 0.023 | inactive: 0.039 |  | 
PTDSS1 (UniProt P48651) | inactive: 0.005 | inactive: -0.006 | inactive: 0.08 | inactive: -0.01 | inactive: 0.192 | inactive: -0.055 | inactive: 0.019 | inactive: -0.007 | inactive: 0.072 | inactive: 0.03 | inactive: 0.004 | inactive: 0.009 | inactive: -0.069 | inactive: -0.035 | inactive: 0.124 | inactive: 0 | inactive: 0.177 | inactive: -0.081 |  | 
PSMC6 (UniProt P62333) | inactive: 0 | inactive: 0.022 | inactive: -0.034 | inactive: -0.043 | inactive: 0.034 | inactive: -0.067 | inactive: -0.069 | inactive: 0.01 | inactive: -0.081 | inactive: -0.055 | inactive: 0.033 | inactive: 0.178 | inactive: -0.021 | active: -0.312 | inactive: 0.029 | inactive: -0.03 | inactive: 0.009 | inactive: 0.018 |  | 
PTRH2 (UniProt Q9Y3E5) | inactive: 0.009 | inactive: -0.007 | inactive: 0.032 | inactive: 0.144 | inactive: -0.078 | inactive: -0.05 | inactive: -0.009 | inactive: -0.025 | inactive: -0.064 | inactive: -0.022 | inactive: -0.004 | inactive: -0.09 | inactive: 0.013 | inactive: -0.018 | inactive: -0.067 | inactive: 0.057 | inactive: -0.042 | inactive: 0.018 |  | 
PTGES3 (UniProt Q15185) | inactive: 0.039 | inactive: -0.073 | inactive: 0.044 | inactive: 0.078 | inactive: -0.046 | inactive: 0.032 | inactive: 0.111 | inactive: 0.034 | inactive: 0.026 | inactive: 0.064 | inactive: -0.21 | active: -0.504 | inactive: 0.096 | inactive: 0.041 | inactive: -0.11 | inactive: 0.049 | inactive: -0.045 | inactive: -0.134 |  | 

In a second layout: results already given

| Target | log2 fold change [1] | log2 fold change [2] | log2 fold change [3] | log2 fold change [4] | log2 fold change [5] | log2 fold change [6] | log2 fold change [7] | log2 fold change [8] | log2 fold change [9] | log2 fold change [10] | log2 fold change [11] | log2 fold change [12] | log2 fold change [13] | log2 fold change [14] | log2 fold change [15] | log2 fold change [16] | log2 fold change [17] | log2 fold change [18] | log2 fold change [19] | log2 fold change [20] |
| --- | --- | --- | --- | --- | --- | --- | --- | --- | --- | --- | --- | --- | --- | --- | --- | --- | --- | --- | --- | --- |
| PSMC2 (UniProt P35998) | inactive: 0.011 | inactive: 0.02 | inactive: -0.012 | inactive: -0.069 | inactive: 0.011 | inactive: -0.014 | inactive: -0.041 | inactive: 0.036 | inactive: -0.032 | inactive: -0.053 | inactive: 0.042 | inactive: 0.169 | inactive: -0.019 | active: -0.324 | inactive: 0.024 | inactive: -0.018 | inactive: 0.023 | inactive: 0.039 |  |  |
| PTDSS1 (UniProt P48651) | inactive: 0.005 | inactive: -0.006 | inactive: 0.08 | inactive: -0.01 | inactive: 0.192 | inactive: -0.055 | inactive: 0.019 | inactive: -0.007 | inactive: 0.072 | inactive: 0.03 | inactive: 0.004 | inactive: 0.009 | inactive: -0.069 | inactive: -0.035 | inactive: 0.124 | inactive: 0 | inactive: 0.177 | inactive: -0.081 |  |  |

Source: the supplement of paper PMC10849652
